Measurements as given in publication PMC8778097.
No constants are given. Whether binding was seen depends on the method and setting. Binding seen in cells or lysates may run through a third protein. Some results given as binding are weak or reduced against the parent protein; the word gives no strength.

Sequences of proteins named here, by UniProt entry; tags and fusion partners are left off.
UniProt P51784: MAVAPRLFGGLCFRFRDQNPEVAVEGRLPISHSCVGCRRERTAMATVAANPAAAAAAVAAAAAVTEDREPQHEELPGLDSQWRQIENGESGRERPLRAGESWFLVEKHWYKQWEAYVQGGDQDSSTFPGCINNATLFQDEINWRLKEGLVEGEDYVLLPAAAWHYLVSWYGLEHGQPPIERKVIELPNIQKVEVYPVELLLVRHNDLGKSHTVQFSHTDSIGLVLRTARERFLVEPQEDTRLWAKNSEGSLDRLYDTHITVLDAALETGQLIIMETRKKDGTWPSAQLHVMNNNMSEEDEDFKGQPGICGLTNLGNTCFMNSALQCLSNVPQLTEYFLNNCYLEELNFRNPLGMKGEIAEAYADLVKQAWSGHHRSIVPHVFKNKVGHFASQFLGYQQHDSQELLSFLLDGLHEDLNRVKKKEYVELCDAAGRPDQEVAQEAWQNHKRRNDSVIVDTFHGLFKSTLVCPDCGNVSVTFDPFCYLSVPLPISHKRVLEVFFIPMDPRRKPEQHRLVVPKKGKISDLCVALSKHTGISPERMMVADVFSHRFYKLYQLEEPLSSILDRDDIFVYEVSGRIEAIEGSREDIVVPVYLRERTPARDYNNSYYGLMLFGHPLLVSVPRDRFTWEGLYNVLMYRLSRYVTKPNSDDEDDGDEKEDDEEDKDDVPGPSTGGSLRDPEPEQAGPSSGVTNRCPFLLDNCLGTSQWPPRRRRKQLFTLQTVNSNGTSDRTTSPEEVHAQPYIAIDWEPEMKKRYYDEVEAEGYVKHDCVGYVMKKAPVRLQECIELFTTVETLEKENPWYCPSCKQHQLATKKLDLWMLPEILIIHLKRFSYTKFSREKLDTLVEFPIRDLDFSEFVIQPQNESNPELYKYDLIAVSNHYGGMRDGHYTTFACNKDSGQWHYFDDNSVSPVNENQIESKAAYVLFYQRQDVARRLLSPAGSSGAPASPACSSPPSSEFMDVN
UniProt P28360: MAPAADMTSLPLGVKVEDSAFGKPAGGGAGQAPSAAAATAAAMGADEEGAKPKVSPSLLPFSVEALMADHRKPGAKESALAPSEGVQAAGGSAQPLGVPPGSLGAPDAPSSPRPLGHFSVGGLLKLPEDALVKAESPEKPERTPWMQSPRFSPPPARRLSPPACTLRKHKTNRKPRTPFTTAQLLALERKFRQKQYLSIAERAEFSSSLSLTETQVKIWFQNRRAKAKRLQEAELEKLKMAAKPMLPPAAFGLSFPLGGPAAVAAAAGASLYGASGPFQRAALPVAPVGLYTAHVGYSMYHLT

How the values were obtained:
[1] = target: ubiquitin-specific protease 11 (USP11), endogenous in hMSCs (human (endogenous in hMSCs)) (UniProt P51784); experiment: co-IP; endogenous proteins; hMSC lysates in RIPA buffer immunoprecipitated with anti-MSX1 or anti-USP11 antibodies at 4 °C overnight, protein agarose beads, immunoblot; cells treated with MG132 for 6 h prior to harvest
[2] = target: Msh homeobox 1 (MSX1), endogenous in hMSCs (human (endogenous in hMSCs)) (UniProt P28360); experiment: as above
[3] = target: Myc-MSX1 (human) (UniProt P28360); experiment: co-IP; Myc-MSX1 and HA-USP11 co-transfected in HEK293 cells; lysates in RIPA buffer immunoprecipitated with anti-Myc or anti-HA antibodies at 4 °C overnight, protein agarose beads, immunoblot; cells treated with MG132 for 6 h prior to harvest
[4] = target: HA-USP11 (UniProt P51784); experiment: as above

Substance: Msh homeobox 1 (MSX1), endogenous in hMSCs (from UniProt P28360 1-303)
- binding [1]: binds

Substance: ubiquitin-specific protease 11 (USP11), endogenous in hMSCs (from UniProt P51784 1-963) (enzyme)
- binding [2]: binds

Substance: HA-USP11 (from UniProt P51784 1-963) (enzyme)
- binding [3]: binds

Substance: Myc-MSX1 (from UniProt P28360 1-303)
- binding [4]: binds
